The other results are listed elsewhere or left out.
Legend:
Test in all cases: log2 fold change, soluble protein after heating vs DMSO (PISA); higher = thermal stabilisation; K562 lysate, 10 uM; active = over 0.2 and 3.5 SD of the protein, either way, in both replicates (recomputed)
erlotinib = compound: C#Cc1cccc(Nc2ncnc3cc(OCCOC)c(OCCOC)cc23)c1 [erlotinib]
Procedure, shortened: (§1)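 Quantification was by TMTpro 16plex LC-MS/MS with equalised channel sums, applied to the supernatant after 21,000xg for 90 min. Samples were crude K562 extract at 1 mg/mL protein in PBS pH 7.4 with 1 mM MgCl2, treated with 10 μM compound for 30 min, heated for 3 min across 48°C-58°C, pooled and brought to 0.5% NP-40 at 4°C. Values are log-two fold changes in thermal stability relative to solvent controls, from duplicates.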

By UniProt entry, the sequences of proteins in these tests, tags left out. Where a name states a change or a piece, a line headed by the entry shows the natural chain unless it says otherwise.
UniProt Q9NR28: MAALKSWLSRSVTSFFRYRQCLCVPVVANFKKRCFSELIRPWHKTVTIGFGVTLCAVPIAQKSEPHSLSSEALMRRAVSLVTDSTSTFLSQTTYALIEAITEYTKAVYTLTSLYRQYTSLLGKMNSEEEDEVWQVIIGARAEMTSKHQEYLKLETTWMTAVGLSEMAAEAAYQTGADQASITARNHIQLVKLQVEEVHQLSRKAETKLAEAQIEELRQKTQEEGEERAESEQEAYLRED
UniProt P36957: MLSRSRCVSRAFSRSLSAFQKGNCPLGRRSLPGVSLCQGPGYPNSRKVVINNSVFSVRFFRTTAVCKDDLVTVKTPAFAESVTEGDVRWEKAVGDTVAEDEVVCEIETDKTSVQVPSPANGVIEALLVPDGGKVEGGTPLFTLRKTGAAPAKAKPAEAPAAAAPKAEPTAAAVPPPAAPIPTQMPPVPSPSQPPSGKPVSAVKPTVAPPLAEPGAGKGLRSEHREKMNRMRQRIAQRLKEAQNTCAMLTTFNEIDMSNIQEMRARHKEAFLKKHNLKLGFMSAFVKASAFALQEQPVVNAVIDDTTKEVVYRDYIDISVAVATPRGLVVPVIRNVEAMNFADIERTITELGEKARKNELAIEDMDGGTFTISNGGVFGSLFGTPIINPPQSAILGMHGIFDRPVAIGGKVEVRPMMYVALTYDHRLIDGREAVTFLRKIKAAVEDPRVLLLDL
UniProt Q92796: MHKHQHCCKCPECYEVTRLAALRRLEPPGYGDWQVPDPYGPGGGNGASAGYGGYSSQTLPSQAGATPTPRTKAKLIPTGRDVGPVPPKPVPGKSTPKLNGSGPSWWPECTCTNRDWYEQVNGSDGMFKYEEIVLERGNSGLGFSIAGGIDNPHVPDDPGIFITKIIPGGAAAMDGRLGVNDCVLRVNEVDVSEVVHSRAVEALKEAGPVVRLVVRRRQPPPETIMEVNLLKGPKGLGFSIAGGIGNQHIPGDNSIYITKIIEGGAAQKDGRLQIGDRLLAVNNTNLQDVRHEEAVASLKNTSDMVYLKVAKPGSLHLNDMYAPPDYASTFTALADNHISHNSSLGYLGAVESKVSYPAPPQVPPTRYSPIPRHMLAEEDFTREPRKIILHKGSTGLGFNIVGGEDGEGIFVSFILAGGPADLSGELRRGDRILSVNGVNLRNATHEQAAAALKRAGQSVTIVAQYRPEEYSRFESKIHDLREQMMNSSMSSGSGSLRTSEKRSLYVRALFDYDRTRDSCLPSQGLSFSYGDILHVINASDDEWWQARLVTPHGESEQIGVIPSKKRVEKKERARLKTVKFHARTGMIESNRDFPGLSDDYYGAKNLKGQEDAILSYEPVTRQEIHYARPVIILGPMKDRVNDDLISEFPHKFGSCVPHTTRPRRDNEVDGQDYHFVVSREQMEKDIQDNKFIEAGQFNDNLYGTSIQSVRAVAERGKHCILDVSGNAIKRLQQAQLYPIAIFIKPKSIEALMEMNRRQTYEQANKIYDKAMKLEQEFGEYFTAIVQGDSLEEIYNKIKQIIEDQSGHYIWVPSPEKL
UniProt Q6XZF7: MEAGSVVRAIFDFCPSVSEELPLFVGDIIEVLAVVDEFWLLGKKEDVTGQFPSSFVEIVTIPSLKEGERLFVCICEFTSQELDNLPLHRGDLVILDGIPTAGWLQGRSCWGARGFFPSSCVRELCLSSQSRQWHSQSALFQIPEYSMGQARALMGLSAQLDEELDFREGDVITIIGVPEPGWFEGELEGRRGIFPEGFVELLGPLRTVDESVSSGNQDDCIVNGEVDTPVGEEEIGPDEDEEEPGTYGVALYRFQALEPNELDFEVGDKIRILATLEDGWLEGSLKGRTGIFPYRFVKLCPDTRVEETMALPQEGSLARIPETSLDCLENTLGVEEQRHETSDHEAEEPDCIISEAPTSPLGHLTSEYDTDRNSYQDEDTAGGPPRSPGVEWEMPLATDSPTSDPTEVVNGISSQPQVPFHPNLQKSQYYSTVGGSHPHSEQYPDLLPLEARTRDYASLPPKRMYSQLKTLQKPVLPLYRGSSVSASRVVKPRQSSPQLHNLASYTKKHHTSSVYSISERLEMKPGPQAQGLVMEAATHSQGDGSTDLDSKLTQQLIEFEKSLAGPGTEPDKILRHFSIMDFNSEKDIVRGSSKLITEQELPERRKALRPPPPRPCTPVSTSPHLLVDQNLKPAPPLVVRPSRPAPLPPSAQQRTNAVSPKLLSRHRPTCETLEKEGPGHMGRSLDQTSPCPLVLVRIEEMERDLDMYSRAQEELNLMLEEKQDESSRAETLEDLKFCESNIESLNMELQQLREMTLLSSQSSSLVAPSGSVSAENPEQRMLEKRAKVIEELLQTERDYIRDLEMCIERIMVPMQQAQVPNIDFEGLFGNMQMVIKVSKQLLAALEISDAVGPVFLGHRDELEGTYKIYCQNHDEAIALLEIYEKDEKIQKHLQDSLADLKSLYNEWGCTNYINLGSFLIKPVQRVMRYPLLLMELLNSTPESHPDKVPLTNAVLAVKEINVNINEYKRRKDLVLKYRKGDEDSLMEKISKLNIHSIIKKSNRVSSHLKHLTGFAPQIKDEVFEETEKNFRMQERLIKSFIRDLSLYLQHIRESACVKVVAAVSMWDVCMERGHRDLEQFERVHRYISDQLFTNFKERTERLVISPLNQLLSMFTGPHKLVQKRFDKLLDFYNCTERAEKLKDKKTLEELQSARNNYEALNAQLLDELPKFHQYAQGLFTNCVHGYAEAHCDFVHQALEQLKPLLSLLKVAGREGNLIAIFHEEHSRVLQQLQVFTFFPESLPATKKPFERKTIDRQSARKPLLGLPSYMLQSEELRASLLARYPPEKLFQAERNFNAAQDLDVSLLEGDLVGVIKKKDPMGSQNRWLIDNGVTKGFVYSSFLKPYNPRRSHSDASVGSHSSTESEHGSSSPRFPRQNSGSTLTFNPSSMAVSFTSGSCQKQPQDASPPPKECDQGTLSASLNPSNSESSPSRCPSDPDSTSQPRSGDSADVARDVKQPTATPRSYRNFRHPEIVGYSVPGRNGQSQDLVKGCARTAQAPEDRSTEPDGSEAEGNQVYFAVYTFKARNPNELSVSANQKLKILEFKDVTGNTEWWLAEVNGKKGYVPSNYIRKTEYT
UniProt Q99704: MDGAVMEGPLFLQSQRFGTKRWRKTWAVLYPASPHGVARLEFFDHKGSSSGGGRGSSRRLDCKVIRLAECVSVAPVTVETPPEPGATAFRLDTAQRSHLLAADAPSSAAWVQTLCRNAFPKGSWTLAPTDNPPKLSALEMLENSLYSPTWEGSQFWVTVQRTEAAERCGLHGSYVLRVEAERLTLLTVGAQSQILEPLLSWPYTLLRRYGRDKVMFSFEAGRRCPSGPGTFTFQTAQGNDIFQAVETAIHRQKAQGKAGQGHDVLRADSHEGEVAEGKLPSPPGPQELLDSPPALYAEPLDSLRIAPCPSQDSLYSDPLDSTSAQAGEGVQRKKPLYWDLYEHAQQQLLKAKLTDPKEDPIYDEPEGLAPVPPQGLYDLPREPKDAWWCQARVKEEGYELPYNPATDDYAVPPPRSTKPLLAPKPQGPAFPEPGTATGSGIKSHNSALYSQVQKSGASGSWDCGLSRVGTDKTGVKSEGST
UniProt Q7Z478: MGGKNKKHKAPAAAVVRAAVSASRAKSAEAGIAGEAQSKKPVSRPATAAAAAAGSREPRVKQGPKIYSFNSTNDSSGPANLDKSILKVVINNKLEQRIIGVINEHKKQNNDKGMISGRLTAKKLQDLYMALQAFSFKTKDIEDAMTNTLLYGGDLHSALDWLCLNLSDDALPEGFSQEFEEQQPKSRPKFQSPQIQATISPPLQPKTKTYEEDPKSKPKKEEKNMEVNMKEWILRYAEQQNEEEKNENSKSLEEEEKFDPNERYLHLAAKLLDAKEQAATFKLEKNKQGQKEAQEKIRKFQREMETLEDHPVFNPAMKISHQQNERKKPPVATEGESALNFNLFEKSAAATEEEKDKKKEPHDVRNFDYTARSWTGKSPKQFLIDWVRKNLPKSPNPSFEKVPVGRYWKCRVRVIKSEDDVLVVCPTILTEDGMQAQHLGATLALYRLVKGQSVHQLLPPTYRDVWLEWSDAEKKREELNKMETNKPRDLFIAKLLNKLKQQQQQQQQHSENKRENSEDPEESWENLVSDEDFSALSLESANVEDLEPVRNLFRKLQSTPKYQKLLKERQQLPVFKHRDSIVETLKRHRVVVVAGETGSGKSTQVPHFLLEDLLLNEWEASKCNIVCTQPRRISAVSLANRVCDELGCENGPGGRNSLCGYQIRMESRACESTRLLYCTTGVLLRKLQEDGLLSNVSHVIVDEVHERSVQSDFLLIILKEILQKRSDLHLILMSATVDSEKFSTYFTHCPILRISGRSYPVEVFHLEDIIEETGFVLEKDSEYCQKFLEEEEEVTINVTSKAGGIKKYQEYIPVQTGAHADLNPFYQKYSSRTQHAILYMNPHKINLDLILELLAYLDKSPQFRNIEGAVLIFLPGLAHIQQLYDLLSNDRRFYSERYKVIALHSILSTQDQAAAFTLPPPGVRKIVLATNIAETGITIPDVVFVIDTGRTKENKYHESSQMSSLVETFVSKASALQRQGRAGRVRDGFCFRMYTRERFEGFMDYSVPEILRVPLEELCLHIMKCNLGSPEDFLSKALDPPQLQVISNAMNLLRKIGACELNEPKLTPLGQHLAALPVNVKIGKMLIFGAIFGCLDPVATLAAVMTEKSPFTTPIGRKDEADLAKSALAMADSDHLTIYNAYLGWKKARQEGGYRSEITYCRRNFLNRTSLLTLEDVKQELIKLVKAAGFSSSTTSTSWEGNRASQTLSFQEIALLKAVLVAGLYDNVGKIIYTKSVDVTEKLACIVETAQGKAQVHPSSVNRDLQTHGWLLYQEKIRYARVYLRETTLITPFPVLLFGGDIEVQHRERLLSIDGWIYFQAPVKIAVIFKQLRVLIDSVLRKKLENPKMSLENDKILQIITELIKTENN
UniProt Q9H3Z4: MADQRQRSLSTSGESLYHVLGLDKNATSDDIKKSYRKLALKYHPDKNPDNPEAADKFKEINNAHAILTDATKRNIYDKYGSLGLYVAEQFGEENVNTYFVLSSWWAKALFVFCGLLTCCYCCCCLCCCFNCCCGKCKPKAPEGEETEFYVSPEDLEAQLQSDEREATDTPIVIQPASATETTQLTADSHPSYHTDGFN
UniProt Q99766: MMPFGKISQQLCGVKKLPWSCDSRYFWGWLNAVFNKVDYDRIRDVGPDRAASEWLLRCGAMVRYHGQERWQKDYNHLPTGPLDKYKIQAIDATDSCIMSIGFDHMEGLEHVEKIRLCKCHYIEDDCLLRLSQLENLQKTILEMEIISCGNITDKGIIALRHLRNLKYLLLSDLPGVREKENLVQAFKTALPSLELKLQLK
UniProt O43143: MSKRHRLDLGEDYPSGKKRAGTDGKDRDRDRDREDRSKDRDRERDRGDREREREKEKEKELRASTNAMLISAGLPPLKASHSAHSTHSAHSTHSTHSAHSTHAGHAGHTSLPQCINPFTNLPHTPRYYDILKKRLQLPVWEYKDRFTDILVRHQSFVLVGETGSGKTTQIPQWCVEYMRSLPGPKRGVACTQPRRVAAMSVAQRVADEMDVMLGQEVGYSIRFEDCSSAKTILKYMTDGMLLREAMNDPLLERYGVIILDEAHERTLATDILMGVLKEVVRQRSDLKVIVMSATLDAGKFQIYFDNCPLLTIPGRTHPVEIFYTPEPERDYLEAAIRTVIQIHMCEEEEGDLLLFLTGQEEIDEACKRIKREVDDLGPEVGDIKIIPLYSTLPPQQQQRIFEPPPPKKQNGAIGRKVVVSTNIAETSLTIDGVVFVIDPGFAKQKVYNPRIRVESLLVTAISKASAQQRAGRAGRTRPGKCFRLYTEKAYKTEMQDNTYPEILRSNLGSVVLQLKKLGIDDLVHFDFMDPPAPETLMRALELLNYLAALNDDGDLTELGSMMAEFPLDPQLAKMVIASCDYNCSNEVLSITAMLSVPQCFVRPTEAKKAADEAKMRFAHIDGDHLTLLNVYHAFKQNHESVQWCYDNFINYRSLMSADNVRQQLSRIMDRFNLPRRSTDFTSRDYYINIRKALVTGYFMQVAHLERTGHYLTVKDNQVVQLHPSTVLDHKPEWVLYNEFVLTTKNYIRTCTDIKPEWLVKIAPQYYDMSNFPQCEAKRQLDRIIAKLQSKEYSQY
UniProt Q96LJ7: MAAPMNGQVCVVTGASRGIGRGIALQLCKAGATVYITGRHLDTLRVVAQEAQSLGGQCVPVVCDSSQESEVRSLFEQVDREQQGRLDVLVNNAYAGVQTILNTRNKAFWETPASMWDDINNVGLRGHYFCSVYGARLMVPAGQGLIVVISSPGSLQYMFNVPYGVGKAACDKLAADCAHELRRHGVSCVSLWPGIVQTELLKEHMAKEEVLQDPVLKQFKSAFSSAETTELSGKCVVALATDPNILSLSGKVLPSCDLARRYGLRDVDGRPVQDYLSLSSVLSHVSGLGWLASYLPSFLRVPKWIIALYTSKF

[1] = compound: C/C(=N\NC(=O)C1=CC(=CC=C1)S(=O)(=O)N2CCOCC2)/C3=C(C=CC(=C3)Cl)O
Procedure, shortened: as §1

[2] = compound: C1=CC(=CC=C1C2=NC3=C(N2)C=C(C=C3)C(=O)N)OC4=CC=C(C=C4)Cl
Procedure, shortened: as §1

[3] = compound: C1=CC2=C(C=CC(=C2)/C=C\3/C(=O)NC(=NCC4=CC=CS4)S3)N=C1
Procedure, shortened: as §1

[4] = compound: C1=CC2=NC=CN=C2C=C1/C=C/3\C(=O)NC(=O)S3
Procedure, shortened: as §1

[5] = compound: C1=CC=C(C=C1)C2=NC(=C(N2)C3=CC=NC=C3)C4=CC(=C(C=C4)Cl)O
Procedure, shortened: as §1

[6] = compound: C1=CC=C2C(=C1)C3=NNC4=CC=CC(=C43)C2=O
Procedure, shortened: as §1

[7] = compound: C1CCN(C1)C(=O)NC2=CC=CC(=C2)NC3=NC=C(C(=N3)NCCC4=CN=CN4)Br
Procedure, shortened: as §1

[8] = compound: C1CN(CCC1(CC2=CC=C(C=C2)Cl)N)C3=NC=NC4=C3C=CN4
Procedure, shortened: as §1

IRAK-1-4 Inhibitor I = compound: C1COCCN1CCN2C3=CC=CC=C3N=C2NC(=O)C4=CC(=CC=C4)[N+](=O)[O-] [IRAK-1-4 Inhibitor I]
Procedure, shortened: as §1

ibrutinib = compound: C=CC(=O)N1CCC[C@@H](n2nc(-c3ccc(Oc4ccccc4)cc3)c3c(N)ncnc32)C1 [ibrutinib]
Procedure, shortened: as §1

[9] = compound: CC(=O)c1cnc2ccc(-c3cc(Cl)c(O)c(Cl)c3)nc2c1N[C@H]1CC[C@H](CN(C)C)CC1
Procedure, shortened: as §1

ralimetinib = compound: CC(C)(C)Cn1c(N)nc2ccc(-c3[nH]c(C(C)(C)C)nc3-c3ccc(F)cc3)nc21 [ralimetinib]
Procedure, shortened: as §1

[10] = compound: CC(C)(O)CC(=O)NCCn1ccc2ncnc(Nc3ccc(Oc4cccc(C(F)(F)F)c4)c(Cl)c3)c21
Procedure, shortened: as §1

[11] = compound: CC(C)C1=C2N=C(C=C(N2N=C1)NCC3=CC=CC=C3)NCCCCCCN
Procedure, shortened: as §1

[12] = compound: CC1=C(C(CC(=O)N1)C2=CC=C(C=C2)C(F)(F)F)C(=O)NC3=C(C=C4C(=C3)C=NN4)F
Procedure, shortened: as §1

[13] = compound: CC1=C(C2=C(C=C1)C(=O)C3=CC=CC=C3N2CCCN)C
Procedure, shortened: as §1

[14] = compound: CC1=C(C=C(C=C1)NC(=O)C2=CC(=CC=C2)C(C)(C)C#N)NC3=CC4=C(C=C3)N=CN(C4=O)C
Procedure, shortened: as §1

[15] = compound: CC1=C(C=C(C=C1)NC(=O)C2=CC(=CC=C2)N(C)C)NC(=O)C3=CC=C(C=C3)O
Procedure, shortened: as §1

[16] = compound: CC1=CC=C(C=C1)SC2=C3C=C(SC3=CN=C2)C(=O)N
Procedure, shortened: as §1

Measured: log2 fold change

DHX8 (UniProt Q14562)
inactive: erlotinib -0.012 | [1] 0.028 | [2] -0.063 | [3] -0.038 | [4] -0.058 | [5] -0.01 | [6] 0.027 | [7] -0.015 | [8] -0.062 | IRAK-1-4 Inhibitor I -0.05 | ibrutinib -0.002 | [9] 0.007 | ralimetinib 0.015 | [10] 0.006 | [11] 0 | [12] 0.079 | [13] 0.011 | [14] -0.037 | [15] 0.035 | [16] 0.02

DNAJB11 (UniProt Q9UBS4)
inactive: erlotinib -0.006 | [1] -0.01 | [2] 0.002 | [3] -0.02 | [4] -0.045 | [5] -0.024 | [6] -0.021 | [7] -0.009 | [8] 0.011 | IRAK-1-4 Inhibitor I 0.018 | ibrutinib -0.026 | [9] -0.003 | ralimetinib 0.019 | [10] -0.005 | [11] 0.009 | [12] 0.018 | [13] 0.007 | [14] 0.011 | [15] -0.004 | [16] -0.017

DOCK11 (UniProt Q5JSL3)
inactive: erlotinib -0.005 | [1] 0.012 | [2] 0.009 | [3] 0.036 | [4] 0.012 | [5] -0.048 | [6] -0.045 | [7] -0.028 | [8] 0.003 | IRAK-1-4 Inhibitor I 0.014 | ibrutinib -0.01 | [9] 0.004 | ralimetinib 0.024 | [10] -0.049 | [11] 0.029 | [12] -0.019 | [13] -0.002 | [14] 0.032 | [15] 0.009 | [16] 0.022

DIABLO (UniProt Q9NR28)
inactive: erlotinib 0.005 | [1] -0.023 | [2] 0.005 | [3] 0.016 | [4] 0.008 | [5] -0.007 | [6] 0.02 | [7] 0.004 | [8] 0.022 | IRAK-1-4 Inhibitor I 0.004 | ibrutinib 0.088 | [9] -0.036 | ralimetinib -0.001 | [10] -0.05 | [11] -0.029 | [12] -0.042 | [13] 0 | [14] 0.003 | [15] -0.011 | [16] 0.004

DLGAP4 (UniProt Q9Y2H0)
inactive: erlotinib -0.024 | [1] -0.006 | [2] 0.037 | [3] -0.019 | [4] 0.023 | [5] -0.001 | [6] 0.086 | [7] 0.002 | [8] -0.004 | IRAK-1-4 Inhibitor I -0.045 | ibrutinib 0.017 | [9] 0.004 | ralimetinib 0.02 | [10] 0.01 | [11] -0.024 | [12] -0.011 | [13] 0.018 | [14] 0.062 | [15] -0.009 | [16] -0.023

DMAP1 (UniProt Q9NPF5)
inactive: erlotinib 0.035 | [1] -0.043 | [2] 0.05 | [3] 0.043 | [4] -0.024 | [5] -0.008 | [6] -0.046 | [7] -0.068 | [8] -0.048 | IRAK-1-4 Inhibitor I 0.038 | ibrutinib 0.213 | [9] 0.059 | ralimetinib 0.052 | [10] -0.019 | [11] 0.029 | [12] 0.145 | [13] -0.012 | [14] 0.049 | [15] 0.042 | [16] 0.029

DLST (UniProt P36957)
inactive: erlotinib 0 | [1] -0.019 | [2] 0.027 | [3] 0.021 | [4] -0.011 | [5] -0.012 | [6] -0.056 | [7] 0.004 | [8] 0 | IRAK-1-4 Inhibitor I 0.007 | ibrutinib -0.002 | [9] -0.015 | ralimetinib -0.021 | [10] -0.027 | [11] -0.001 | [12] 0.021 | [13] -0.05 | [14] 0 | [15] 0.004 | [16] -0.015

DLG3 isoform 2 (UniProt Q92796)
inactive: erlotinib -0.048 | [1] -0.085 | [2] 0.073 | [3] 0.002 | [4] -0.046 | [5] -0.012 | [6] -0.013 | [7] 0.019 | [8] -0.001 | IRAK-1-4 Inhibitor I -0.056 | ibrutinib 0.034 | [9] 0.009 | ralimetinib 0.124 | [10] 0.042 | [11] -0.005 | [12] 0.055 | [13] -0.009 | [14] -0.023 | [15] -0.033 | [16] 0.024

DHX40 (UniProt Q8IX18)
inactive: erlotinib -0.073 | [1] -0.03 | [2] -0.038 | [3] 0.047 | [4] 0.02 | [5] -0.001 | [6] 0.008 | [7] -0.028 | [8] 0.024 | IRAK-1-4 Inhibitor I -0.069 | ibrutinib -0.011 | [9] -0.032 | ralimetinib 0.035 | [10] 0.03 | [11] 0 | [12] -0.091 | [13] -0.027 | [14] -0.019 | [15] 0.016 | [16] -0.008

DNMBP (UniProt Q6XZF7)
inactive: erlotinib 0.06 | [1] 0.675 | [2] 0.057 | [3] 0.042 | [4] -0.117 | [5] 0.03 | [6] -0.033 | [7] 0.012 | [8] -0.006 | IRAK-1-4 Inhibitor I 0.072 | ibrutinib -0.001 | [9] -0.106 | ralimetinib 0.026 | [10] 0.003 | [11] 0.022 | [12] 0.084 | [13] -0.145 | [14] -0.029 | [15] -0.053 | [16] 0.01

DOK1 (UniProt Q99704)
inactive: erlotinib -0.024 | [1] 0.051 | [2] 0.023 | [3] 0.015 | [4] 0.002 | [5] -0.041 | [6] -0.02 | [7] 0.021 | [8] 0.06 | IRAK-1-4 Inhibitor I 0.021 | ibrutinib 0.023 | [9] 0.01 | ralimetinib 0.017 | [10] 0.014 | [11] -0.029 | [12] 0.137 | [13] 0.018 | [14] 0.017 | [15] 0.014 | [16] -0.135

DHX29 (UniProt Q7Z478)
inactive: erlotinib -0.02 | [1] -0.077 | [2] -0.01 | [3] -0.019 | [4] -0.005 | [5] 0.004 | [6] 0.017 | [7] -0.013 | [8] -0.001 | IRAK-1-4 Inhibitor I -0.005 | ibrutinib -0.015 | [9] -0.027 | ralimetinib 0.018 | [10] -0.043 | [11] 0.01 | [12] 0.014 | [13] 0.036 | [14] -0.027 | [15] -0.003 | [16] 0.001

DNAJC5 (UniProt Q9H3Z4)
inactive: erlotinib -0.003 | [1] 0.037 | [2] -0.018 | [3] -0.021 | [4] 0.053 | [5] 0.033 | [6] 0 | [7] 0.049 | [8] -0.005 | IRAK-1-4 Inhibitor I -0.012 | ibrutinib -0.029 | [9] -0.072 | ralimetinib -0.013 | [10] -0.043 | [11] -0.044 | [12] 0.06 | [13] -0.008 | [14] 0.048 | [15] -0.036 | [16] -0.116

DMAC2L (UniProt Q99766)
inactive: erlotinib -0.057 | [1] 0.033 | [2] -0.017 | [3] 0.008 | [4] -0.074 | [5] 0.015 | [6] -0.066 | [7] -0.068 | [8] 0.027 | IRAK-1-4 Inhibitor I -0.005 | ibrutinib 0.046 | [9] -0.046 | ralimetinib 0.037 | [10] -0.017 | [11] 0.017 | [12] 0.005 | [13] -0.018 | [14] 0.008 | [15] -0.043 | [16] -0.019

DHX15 (UniProt O43143)
inactive: erlotinib -0.025 | [1] 0.04 | [2] 0 | [3] -0.038 | [4] -0.002 | [5] -0.006 | [6] -0.007 | [7] -0.003 | [8] -0.007 | IRAK-1-4 Inhibitor I 0.011 | ibrutinib 0.003 | [9] -0.011 | ralimetinib 0.025 | [10] -0.027 | [11] -0.016 | [12] 0.001 | [13] -0.005 | [14] -0.014 | [15] -0.007 | [16] 0.014

DHRS1 (UniProt Q96LJ7)
inactive: erlotinib 0.024 | [2] -0.017 | [3] -0.008 | [4] -0.036 | [6] 0.05 | [7] -0.052 | [8] 0.105 | IRAK-1-4 Inhibitor I -0.051 | ibrutinib -0.057 | [9] -0.037 | ralimetinib 0.01 | [10] 0.089 | [11] 0.058 | [12] 0.024 | [13] -0.104 | [14] 0.001 | [15] -0.035 | [16] -0.001
active: [1] 0.898 | [5] 0.654

Source: the supplement of paper PMC10849652
